The source of these data is patent CN106749659A.

Assay [1] concerns the target T1, 人C-反应蛋白 (human C-reactive protein, natural, extracted from human plasma, HyTest) (human) (UniProt P02741).
T1 sequence (looked up): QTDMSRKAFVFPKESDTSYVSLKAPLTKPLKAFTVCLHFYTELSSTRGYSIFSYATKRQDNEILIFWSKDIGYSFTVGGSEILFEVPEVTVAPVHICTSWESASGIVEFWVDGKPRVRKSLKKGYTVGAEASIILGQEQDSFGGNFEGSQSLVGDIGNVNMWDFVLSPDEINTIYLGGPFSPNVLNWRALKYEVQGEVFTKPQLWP
Put plainly: indirect ELISA, CRP coated at 1 μg/mL, hybridoma supernatant, HRP goat anti-mouse IgG, OD450.

For assay [2], the target named is T1, 人C-反应蛋白 (human C-reactive protein, natural, extracted from human plasma, HyTest) (human). Put plainly: colloidal gold lateral flow sandwich, P20 as coated capture antibody.
The target is the same in assay [3]. The assay can be described thus: Western blot of natural CRP from native and SDS polyacrylamide gels, HRP-labelled scFv.

Results are given in words; binding and its absence hold for the method and conditions named. Some binding calls cover weakened binding; strength is not graded here.

B1: 抗体 of 杂交瘤细胞株M20 (mouse monoclonal antibody in the hybridoma supernatant) (antibody, V domains shown)
VH: EVMLVESGGGLVKPGGSLKLSCAASGFTFSSYAMSWVRQTPERRLEWVATISTSGSDRYYPDSVKWRFTISRDSAKNILYLQMSSLRSEDTAMYYCARRGWDYWGQGTSVTVSA
VL: DVVMTQTPLSLPVSLGDQASISCRSSQSLVHSNGNTYLHWYLQKSGQSPKLLLYKVSNRFSGVSDRFSGSGSGTDFTLKISRVEAEDLGVYFCSQNTHVPPTFGGGTKLEIK
For B1, in assay [1], the binding result is listed as “binds”.

B2: 单链抗体P20 (anti-human C-reactive protein scFv P20) (scFv)
scFv: EVMLVESGGGLVKPGGSLKLSCAASGFTFSSYAMSWVRQTPERRLEWVATISTSGSDRYYPDSVKWRFTISRDSAKNILYLQMSSLRSEDTAMYYCARRGWDYWGQGTSVTVSAGGGGSGGGGSGGGGSDVVMTQTPLSLPVSLGDQASISCRSSQSLVHSNGNTYLHWYLQKSGQSPKLLLYKVSNRFSGVSDRFSGSGSGTDFTLKISRVEAEDLGVYFCSQNTHVPPTFGGGTKLEIKR
With B2, the binding entry in assay [2] and in assay [3] was “binds” throughout.
